Measured values published in PubChem BioAssay AID280 (DTP/NCI, 2004).
The list shows only some results of the screen, not a fair sample: it is rich in T/C values a quarter to a half above the control, in often repeated tests (any T/C) and in doses without a T/C. Other doses and runs of a compound stand elsewhere. T/C is the treated group as % of the vehicle group. Some entries give survivors of the animals treated and no T/C: the source files T/C as zero there, which appears to mark a toxic dose or a test without result, not a measured value. Some doses without a T/C left all or most animals alive at the check, yet need not have been tolerated: the source hardly ever lists a survival T/C far under the control, and the zero likely stands for such cases as well. Survivors were counted at the toxicity check, usually on the fifth day, unless a day is given; later deaths do not show. Schedules are NCI's codes, taken here to give the interval after Q, in days (D) or hours (H), and the number of doses after X. Some entries were tested several times; the values are given in rising order. Some structures stand for samples that the source files as different forms (salt, stereo form or complex); doses refer to the form tested. For survival time, this PubChem deposit counts one and a half times the control or more as active, and values a quarter to a half above the control carry no call in these data; other NCI protocols may use other cut-offs. Some T/C values carry the count of animals alive at the toxicity check (mostly the fifth day); where none is given, no animal had died by that day.

System: nude mice, LOX melanoma ip, survival T/C
Experiment: NCI In Vivo Anticancer Drug Screen. Data for tumor model Human Amelanotic Melanoma (LOX) (intraperitoneal) in NU/NU BALB/C (nude) mice
Details: T/C endpoint: median survival time, higher T/C = longer survival
Protocol: The antitumor activity of compounds was measured in mice bearing transplantable tumors. Survival or tumor size were measured and the results are expressed as the measurement made in the treated group (T) divided by the measurement made in the vehicle treated control group (C). The tumor model used in this assay is Human Amelanotic Melanoma (LOX) (intraperitoneal) in NU/NU BALB/C (nude) mice

[1] = dose: 400.0 mg/kg/injection, schedule: Q04DX003 (ip), vehicle: saline with Tween-80
[2] = dose: 25.0 mg/kg/injection, schedule: Q04DX003 (ip), vehicle: saline with Tween-80
[3] = dose: 100.0 mg/kg/injection, schedule: Q04DX003 (ip), vehicle: saline with Tween-80
[4] = dose: 200.0 mg/kg/injection, schedule: Q04DX003 (ip), vehicle: saline with Tween-80
[5] = dose: 40.0 mg/kg/injection, schedule: Q04DX003 (ip), vehicle: water
[6] = dose: 800.0 mg/kg/injection, schedule: Q04DX003 (ip), vehicle: saline with Tween-80
[7] = dose: 600.0 mg/kg/injection, schedule: Q04DX003 (ip), vehicle: saline

For `COc1cc(C(CC(C)=O)c2cc3c(cc2OC(C)=O)OCO3)cc(OC)c1OC` (stereo not given) (tested in a mixture with another compound), the survivor count [1] was 2 of 6 on day 10.
In the case of `CC(=O)C[n+]1ccccc1Sc1ccc(Cl)cc1`, the survivor count [2] was 6 of 6 on day 10, the survivor count (dose: 50.0 mg/kg/injection, schedule: Q04DX003 (ip), vehicle: saline with Tween-80) was 5 of 6 on day 10 and the survivor count [3] was 6 of 6 on day 10. The survivor count [4] was 0 of 6 on day 10 and the survivor count [1] was 0 of 6 on day 10.
In the case of `N[C@@H](Cc1ccc(N(CCCl)CCCl)cc1)C(=O)O`, the survivor count (dose: 8.0 mg/kg/injection, schedule: Q01DX015 (ip), vehicle: water) was 6 of 6 on day 10, the survivor count (dose: 16.0 mg/kg/injection, schedule: Q01DX005 (ip), vehicle: water) was 5 of 6 on day 10 and the survivor count (dose: 16.0 mg/kg/injection, schedule: Q01DX015 (ip), vehicle: water) was 2 of 6 on day 10. For the same compound, the survivor count (dose: 40.0 mg/kg/injection, schedule: Q01DX001 (ip), vehicle: water) was 0 of 6 on day 10 and the survivor count [5] was 0 of 6 on day 10.
In the case of `CC(=O)C[n+]1ccc(C)cc1Sc1ccccc1C`, the survivor count [4] was 3 of 6 on day 10.
In the case of `CN(C)N=Nc1ccc(C(N)=O)cc1`, the T/C (dose: 90.0 mg/kg/injection, schedule: Q04DX003 (ip), vehicle: saline with Tween-80) was 147 % of control.
`COc1ccc2oc3c(ccc[n+]3C)c(=O)c2c1` was tested, and the survivor count [6] was 1 of 6 on day 10.
With `COc1cccc2c1[C@H]1CO[C@H]3C4C[C@H](C(=O)O)C([C@@H](C2)N13)N4C` (stereo not given in full) the T/C (dose: 2.5 mg/kg/injection, schedule: Q04DX003 (ip), vehicle: water) was 126 [5 of 6 alive on day 10] and 138 % of control, the T/C (dose: 5.0 mg/kg/injection, schedule: Q04DX003 (ip), vehicle: water) was 146 % of control and the T/C (dose: 10.0 mg/kg/injection, schedule: Q04DX003 (ip), vehicle: water) was 147 % of control. The survivor count [5] was 2 of 6 on day 10.
For `CN=C(N)N/N=C(\C)c1ccc2sc3ccc(/C(C)=N/NC(N)=NC)cc3c2c1`, the T/C (dose: 150.0 mg/kg/injection, schedule: Q04DX003 (ip), vehicle: saline with Tween-80) was 143 % of control.
In the case of `CN=NN(C)C(=O)NC`, the T/C (dose: 12.5 mg/kg/injection, schedule: Q04DX003 (ip), vehicle: saline) was 131 % of control and the survivor count (dose: 200.0 mg/kg/injection, schedule: Q04DX003 (ip), vehicle: saline) was 6 of 6 on day 10.
With `N=C(N)SCc1cccc2c(=O)cc(-c3ccccc3)oc12` the T/C (dose: 200.0 mg/kg/injection, schedule: Q04DX003 (ip), vehicle: suspension in saline) was 134 % of control.
With `c1ccc([Te][Te]c2ccccc2)cc1` the survivor count (dose: 300.0 mg/kg/injection, schedule: Q04DX003 (ip), vehicle: saline with Tween-80) was 3 of 6 on day 10 and the survivor count (dose: 600.0 mg/kg/injection, schedule: Q04DX003 (ip), vehicle: saline with Tween-80) was 1 of 6 on day 10.
With `c1cn[nH]c1` the survivor count (dose: 300.0 mg/kg/injection, schedule: Q04DX003 (ip), vehicle: saline) was 0 of 6 on day 10, the survivor count [7] was 2 of 6 on day 10 and the survivor count (dose: 1200.0 mg/kg/injection, schedule: Q04DX003 (ip), vehicle: saline) was 0 of 6 on day 10.
In the case of `O=C1C=C(N2CC2)C(=O)C(N2CC2)=C1N1CC1`, the T/C (dose: 50.0 micrograms/kg/injection, schedule: Q04DX003 (ip), vehicle: saline) was 134 % of control, the T/C (dose: 72.0 micrograms/kg/injection, schedule: Q04DX003 (ip), vehicle: saline) was 131 % of control and the T/C (dose: 200.0 micrograms/kg/injection, schedule: Q04DX003 (ip), vehicle: saline) was 147 % of control. For the same compound, the survivor count (dose: 400.0 micrograms/kg/injection, schedule: Q04DX003 (ip), vehicle: saline) was 3 of 6 on day 10.
For `C[n+]1c(-c2ccc(NC(=O)c3ccc(C(=O)Nc4ccc(-c5cn6ccccc6[n+]5C)cc4)cc3)cc2)cn2ccccc21`, the survivor count [3] was 6 of 6 on day 10 and the survivor count [4] was 5 of 6 on day 10.
For `COc1cc(C2CC(C)(O)Oc3cc4c(cc32)OCO4)cc(OC)c1OC` (stereo not given), the survivor count [3] was 2 of 6 on day 10, the survivor count [4] was 2 of 6 on day 10 and the survivor count [1] was 0 of 6 on day 10 and 1 of 6 on day 10. For the same compound, the survivor count [6] was 0 of 6 on day 10 and 1 of 6 on day 10.
`O=c1cc(-c2ccccc2)[nH]c2c1CCCC2` was tested, and the T/C (dose: 1200.0 mg/kg/injection, schedule: Q04DX003 (ip), vehicle: saline with Tween-80, evaluated on day 46) was 127 % of control [4 of 6 alive on day 10], the T/C (dose: 1200.0 mg/kg/injection, schedule: Q04DX003 (ip), vehicle: saline with Tween-80, evaluated on day 60) was 139 % of control and the survivor count (dose: 2000.0 mg/kg/injection, schedule: Q04DX003 (ip), vehicle: saline with Tween-80) was 4 of 6 on day 10.
For `Cc1c2ccccc2c(C)c2c1cc(C(=O)O)c1ccccc12`, the T/C (dose: 50.0 mg/kg/injection, schedule: Q04DX003 (ip), vehicle: sodium bicarbonate) was 129 % of control and the T/C (dose: 100.0 mg/kg/injection, schedule: Q04DX003 (ip), vehicle: sodium bicarbonate) was 128 % of control.
For `O=CC(O)C(O)C(O)C(O)CO` (stereo not given), the survivor count [7] was 6 of 6 on day 10.
With `O=C1C=CC2OC(c3ccccc3)C(O)C2O1` (stereo not given) the survivor count (dose: 100.0 mg/kg/injection, schedule: Q04DX003 (ip), vehicle: DMSO) was 0 of 6 on day 10.
In the case of `CN1C2C=CC(=O)C1C1C(=O)N(c3ccccc3)C(=O)C12` (stereo not given), the survivor count (dose: 800.0 mg/kg/injection, schedule: Q04DX003 (ip), vehicle: Klucel (hydroxypropylcellulose) (HPC)) was 0 of 6 on day 10.
For `CN=C(NC)c1ccc(NC(=O)/C=C\c2ccc(/C=C/C(=O)Nc3ccc(C(=NC)NC)cc3)cc2)cc1`, the T/C (dose: 3.13 mg/kg/injection, schedule: Q04DX003 (ip), vehicle: Klucel (hydroxypropylcellulose) (HPC)) was 128 % of control.
For `O=C1C=CC(=CC=C2C=CN(CCCCCCCCCCCO)C=C2)C=C1`, the T/C [2] was 134 % of control, the T/C [3] was 110, 132, 142, 163 % of control and the survivor count [1] was 0 of 6 on day 10.
For `O=C1c2cccc(NCCCNCCO)c2C(=O)c2cccc(NCCCNCCO)c21`, the T/C (dose: 18.75 mg/kg/injection, schedule: Q04DX003 (ip), vehicle: saline) was 132 % of control, the T/C (dose: 31.0 mg/kg/injection, schedule: Q04DX003 (ip), vehicle: acid diluted with saline) was 141 % of control and the T/C (dose: 52.0 mg/kg/injection, schedule: Q04DX003 (ip), vehicle: acid diluted with saline) was 137 % of control. For the same compound, the survivor count (dose: 52.08 mg/kg/injection, schedule: Q04DX003 (ip), vehicle: acid diluted with saline) was 0 of 6 on day 10.
For `C/C(=N\NC(=S)N1CCC1)c1ccccn1`, the survivor count (dose: 50.0 mg/kg/injection, schedule: Q04DX003 (ip), vehicle: other) was 3 of 6 on day 10.
For `CN=C(N)N/N=C(\C)c1ccc2oc3ccc(/C(C)=N/NC(N)=NC)cc3c2c1`, the T/C (dose: 25.0 mg/kg/injection, schedule: Q04DX003 (ip), vehicle: Klucel (hydroxypropylcellulose) (HPC)) was 130 % of control, the survivor count (dose: 138.89 mg/kg/injection, schedule: Q04DX003 (ip), vehicle: Klucel (hydroxypropylcellulose) (HPC)) was 2 of 6 on day 10 and the survivor count (dose: 139.0 mg/kg/injection, schedule: Q04DX003 (ip), vehicle: Klucel (hydroxypropylcellulose) (HPC)) was 1 of 6 on day 10. For the same compound, the survivor count (dose: 200.0 mg/kg/injection, schedule: Q04DX003 (ip), vehicle: Klucel (hydroxypropylcellulose) (HPC)) was 0 of 6 on day 10 and the survivor count (dose: 400.0 mg/kg/injection, schedule: Q04DX003 (ip), vehicle: Klucel (hydroxypropylcellulose) (HPC)) was 1 of 6 on day 10.
For `CCOC(=O)C1=C(C)O/C(=C/c2cccc(Cl)c2)C1=O`, the T/C (dose: 18.75 mg/kg/injection, schedule: Q04DX003 (ip), vehicle: saline with Tween-80) was 147 % of control.
With `Nc1ccc(S(=O)(=O)Nc2cnc3c(Cl)cccc3n2)cc1` the T/C (dose: 450.0 mg/kg/injection, schedule: Q01DX005 (ip), vehicle: other) was 127 % of control [5 of 6 alive on day 10], the survivor count (dose: 450.0 mg/kg/injection, schedule: Q06HX002 (ip), vehicle: other) was 3 of 6 on day 10 and the survivor count (dose: 674.7 mg/kg/injection, schedule: Q01DX005 (ip), vehicle: other) was 0 of 6 on day 10. For the same compound, the survivor count (dose: 1011.5 mg/kg/injection, schedule: Q01DX001 (ip), vehicle: other) was 0 of 6 on day 10.
`N#Cc1c(-c2ccc(F)cc2)c(-c2ccc(F)cc2)nn(CCO)c1=O` was tested, and the T/C (dose: 200.0 mg/kg/injection, schedule: Q04DX003 (ip), vehicle: distilled water + Tween-80) was 128 % of control.
